# Primary screen of a compound library

Data taken from ChEMBL document CHEMBL3988442, “University of Dundee, Small-Polar-MMV Screening Library” (2021).

The filed quantity is “Percent Effect” (%).
The controls that fix the scale are not given in the record; negative values are as filed.
This is an unselected part of the compounds tested.
A dash means the value is not listed here; it may have been measured.

Mtb growth Cornell: 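Whole-cell assay for inhibitors of Mycobacterium tuberculosis growth, labelled Cornell in the record; the read-out is not stated. The concentration is filed as 10 mM, unlikely as a test dose, so the dose is not known. The record gives no direction; compounds strong in two other growth screens of this library score well above the rest, so higher reads as stronger inhibition. About 53,000 compounds were tested under these conditions; 1.7% (about 900) showed 50% or more at least once.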
Mtb heat-shock: 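Assay on Mycobacterium tuberculosis, filed only as a heat shock assay from Cornell; the read-out is not stated. The concentration is filed as 10 mM, unlikely as a test dose, so the dose is not known. Higher reads as stronger inhibition (inferred: compounds with an IC50 in retests scored well above the rest). Size under these conditions: about 69,000 compounds, about 930 of them at 50% or above in at least one test.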

Compound | Mtb growth Cornell | Mtb heat-shock
Cc1nnc(NCc2cccnc2N(C)C)c(C#N)c1C | 2.183 | 3.29
Cc1nn(C)c2ncnc(N3CCCC(OCc4ccccn4)C3)c12 (stereo not shown) | 13.12 | -19.66
O=C(O)C(F)(F)F.[H][C@@]12COC[C@@H](C(=O)N3CCOCC3)[C@]1([H])CN(C1CCOCC1)C2 | 16.16 | -32.24
O=C(NCCOc1ccc(F)cc1)C1CCCN(C(=O)C2CC2)C1 (stereo not shown) | 12.99 | -54.24
C=C(Cl)CN(C)C1CCN(CCc2ccccn2)CC1 | - | -14.26
Cl.OC1CCN(c2cncc(CCC3CCCN3)n2)CC1 (stereo not shown) | 5.089 | -1.724
CC(C)c1cc(O)nc(C2CCCN2C(=O)C2CC2)n1 (stereo not shown) | -34.16 | -17.99
Cc1cc(C(=O)Nc2cc(C3CC3)n[nH]2)c2c(C)nn(C)c2n1 | -6.481 | 28.31
CCc1noc(C2CCCCN2C(=O)c2ccc3c(c2)OCO3)n1 (stereo not shown) | - | -48.06
CCn1ncc2c1CN(CCc1cccc(Cl)c1)CC2COC.O=C(O)C(F)(F)F.O=C(O)C(F)(F)F (stereo not shown) | 7.794 | -10.95
[H][C@@]12C[C@@H](C(=O)NCc3ccco3)CN(c3ncc(F)cn3)[C@]1([H])CCO2 | 22.42 | -13.24
CS(=O)(=O)c1cccc(C(N)c2ccc(F)c(F)c2)c1.Cl (stereo not shown) | - | 1.68
CC(C)(O)CCc1cccc(C(=O)NCC2COCCO2)c1 (stereo not shown) | - | 2.444
O[C@H]1CN(c2nc(-c3ccccc3)no2)C[C@@H]1N1CCOCC1 | -27.17 | 11.71
COc1ccc2nc(C3CC3)cc(C(=O)NCc3ncnn3C)c2c1 | 19.12 | 5.409
Cc1nn2c(N3CCCC(C#N)C3)cc(-c3ccccc3)nc2c1C (stereo not shown) | -5.374 | 33
Cc1cncnc1C1CCN(CCO)CC1 | -12.12 | 20.98
O=C(O)C(F)(F)F.[H][C@]12CC[C@@]3(N=C(C)N(CC(C)C)C3=O)[C@@]1([H])CN(CC1CC1)C2 | 6.021 | 10.62
CSCC(CCO)NC(=O)Nc1cccc(Br)c1 (stereo not shown) | 27.38 | 0.2262
Cn1cccc1C(=O)N1CCCN(CCCc2ccccc2)CC1 | 15.33 | 13.34
O=C(c1ccccc1F)N1CCN(CCCn2cncn2)CC1 | - | -7.469
Cc1cc(C)c(C(=O)N2CCc3c(ncn3CCc3ccccc3)C2)[nH]1 | - | 3.979
CCOCC(O)CN1CCN(C(=O)c2ccc3c(c2)COC3)CC1 (stereo not shown) | - | -9.062
CC(=O)N(C)c1nc(CN2CCOC(Cn3cc(C)cn3)C2)cs1 (stereo not shown) | - | -14.03
O=C(O)C(F)(F)F.[H][C@@]12CCN(CC3CC3)[C@]1([H])CC[C@@H](C(=O)NCc1ccco1)O2 | -0.8627 | -22.52
O=C(O)c1cc(-c2cccnc2)cc(S(=O)(=O)NCc2ccccn2)c1 | 0.4603 | 6.922
CCOCC(O)CN1CCN(C(=O)C2CCCCC2)CC1 (stereo not shown) | - | 8.207
CN(C)CCN(C)c1ccc(-c2nc(COc3ccccc3)no2)cn1 | 54.95 | 18.72
CC1CCN(CCCNC(=O)c2ccc(N(C)S(C)(=O)=O)cc2Cl)CC1 | 2.9 | 0.582
Cc1noc(OCC(=O)N2CCCCC2C)n1 (stereo not shown) | -53.84 | -13.4
CCCSCC(=O)N1CCN(c2ccc(OC)cc2)CC1C (stereo not shown) | 26.65 | -9.162
O=C(Cc1csc(-c2ccco2)n1)N1CCN(CCO)CC1 | - | -5.123
O=C(O)C(F)(F)F.O=C(O)C(F)(F)F.[H][C@@]12C[C@@H](Oc3cncnc3)CN1CCN(C(=O)c1cccnc1)C2 | 20.27 | -18.63
O=C(O)C(F)(F)F.O=C(O)C(F)(F)F.[H][C@]12CCC[C@@]1(COCc1csc(C)n1)CN(Cc1cccc(C)n1)C2 | -12.34 | -7.351
Cc1ccc(C)c(OCCN(C)C(=O)CCc2cn[nH]c2)c1 | 12.21 | -6.775
CC(C)(C)C(=O)N1CCCC1c1ccc(C(=O)N2CCOCC2)s1 (stereo not shown) | -13.5 | -30.98
O=C(NC1CCC(C(=O)N2CCSCC2)CC1)N1CCOCC1 (stereo not shown) | - | -4.011
CC(C)S(=O)(=O)N1CCC(Cc2cccc(C(=O)O)c2)C1 (stereo not shown) | - | 1.734
O=C(O)C(F)(F)F.O=C(O)C(F)(F)F.[H][C@]12CCN(C(=O)C(C)C)CC[C@@]1([H])S(=O)(=O)CCN2Cc1cccnc1 | - | -30.61
[H][C@@]12CCN(C[C@@H]1CC)[C@@H](CNCc1cccc(C#N)c1)C2 | - | -26.37
COCCCNC(=O)c1ccccc1S(C)(=O)=O | - | -11.74

For reference, 4 entries once more:

{"compound": "CSCC(CCO)NC(=O)Nc1cccc(Br)c1", "stereo": "stereo not shown", "Mtb growth Cornell": 27.38, "Mtb heat-shock": 0.2262}
{"compound": "CC1CCN(CCCNC(=O)c2ccc(N(C)S(C)(=O)=O)cc2Cl)CC1", "Mtb growth Cornell": 2.9, "Mtb heat-shock": 0.582}
{"compound": "O=C(O)C(F)(F)F.O=C(O)C(F)(F)F.[H][C@]12CCC[C@@]1(COCc1csc(C)n1)CN(Cc1cccc(C)n1)C2", "Mtb growth Cornell": -12.34, "Mtb heat-shock": -7.351}
{"compound": "CCc1noc(C2CCCCN2C(=O)c2ccc3c(c2)OCO3)n1", "stereo": "stereo not shown", "Mtb heat-shock": -48.06}